PubChem BioAssay AID1259405 – NCATS | 2018

Test: 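Knock-downs that lift recombinant protein yield in hamster ovary cells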 (primary screen)
Cells: Chinese hamster CHO-K1 ovary cells with stable secreted eGFP expression
Reagent: single siRNA against mouse genes, 0.8 pmol siRNA per well (2 µl of 400 nM stock)
Duration: 3 days
Measured: 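Percent of the per-plate non-targeting control median for intracellular GFP per well by laser scanning cytometry and for cell viability by ATP luminescence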
Scale: GFP, % of control: higher = more GFP per well, higher productivity; viability (ATP), % of control: higher = more viable cells (more ATP)
Active means: 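a knock-down is called active if GFP reaches 120% or more of non-targeting control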
In all, the deposit lists about 50,000 reagents; shown is a part drawn at random. About 4,000 of them (8%) were called active. 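Mouse siRNA library applied to hamster cells; one well for each siRNA.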 A number with no mark means an inactive call. The numbers tell different reagents against one gene apart.

gene symbol | reagent | GFP, % of control | viability (ATP), % of control
Hoxd13 | 1 | 78.2 | 123
Hoxd13 | 2 | 129 (active) | 129
Hoxd13 | 3 | 111 | 78.2
Atp6v0b | 1 | 90.8 | 69.9
Atp6v0b | 2 | 76.7 | 73.9
Atp6v0b | 3 | 56.1 | 43
Rps29 | 1 | 108 | 58.7
Rps29 | 2 | 31.8 | 25.3
Rps29 | 3 | 57.5 | 78.6
Neurl1b | 1 | 58.3 | 76.4
Neurl1b | 2 | 71.5 | 72
Neurl1b | 3 | 168 (active) | 157
Tle1 | 1 | 92.6 | 70
Tle1 | 2 | 45.9 | 70.3
Tle1 | 3 | 89.7 | 98.2
Or1ad1 | 1 | 98 | 87.1
Or1ad1 | 2 | 54.6 | 36.5
Or1ad1 | 3 | 44 | 75
Pkn3 | 1 | 71.9 | 67.6
Pkn3 | 2 | 92.5 | 75.4
Pkn3 | 3 | 102 | 125
Prelp | 1 | 119 | 90.4
Prelp | 2 | 66 | 76
Prelp | 3 | 66.1 | 41.5
Ndst4 | 1 | 103 | 84.6
Ndst4 | 2 | 128 (active) | 183
Ndst4 | 3 | 97.5 | 105
Plcb4 | 1 | 41.3 | 72.7
Plcb4 | 2 | 65.5 | 68.7
Plcb4 | 3 | 91.2 | 65.2
Fbxw17 | 1 | 101 | 101
Fbxw17 | 2 | 82.8 | 75.5
Fbxw17 | 3 | 105 | 96.8
Tgds | 1 | 117 | 135
Tgds | 2 | 63.6 | 80.9

Looked up above:
Under “GFP, % of control”, Neurl1b #2 reads 71.5
Under “GFP, % of control”, Plcb4 #1 has 41.3
Fbxw17 #1, GFP, % of control → 101
Result for Hoxd13 #3 under “GFP, % of control”: 111
Result for Plcb4 #2 in “GFP, % of control”: 65.5

More records:
gene symbol | reagent | GFP, % of control | viability (ATP), % of control
Nit1 | 1 | 85.9 | 75.9
Nit1 | 2 | 79.4 | 50.3
Nit1 | 3 | 130 (active) | 114
Slc22a22 | 1 | 48.3 | 54
Slc22a22 | 2 | 60.6 | 68.4
Slc22a22 | 3 | 69.9 | 70.4
Cpt1c | 1 | 91.6 | 77.2
Cpt1c | 2 | 65.6 | 155
Cpt1c | 3 | 124 (active) | 94.2
5330438D12Rik | 1 | 87.9 | 59
5330438D12Rik | 2 | 69 | 97.4
5330438D12Rik | 3 | 125 (active) | 145
Otop3 | 1 | 40.1 | 96.5
Otop3 | 2 | 78 | 22.8
Otop3 | 3 | 89.7 | 71.4
Rgs8 | 1 | 118 | 87.5
Rgs8 | 2 | 118 | 149
Rgs8 | 3 | 73.5 | 103
Cplx1 | 1 | 42.1 | 80.1
Cplx1 | 2 | 74.7 | 70.4
Cplx1 | 3 | 83.8 | 137
Syt11 | 1 | 128 (active) | 158
Syt11 | 2 | 79.8 | 80.5
Tet2 | 1 | 65.1 | 64.3
Tet2 | 2 | 76.2 | 63.5
Tet2 | 3 | 73.5 | 74.9
Eral1 | 1 | 129 (active) | 105
Eral1 | 2 | 152 (active) | 104
Eral1 | 3 | 43.8 | 57.9
Wtap | 1 | 67.6 | 71.8
Wtap | 2 | 119 | 77.7
Wtap | 3 | 73 | 81
Ambp | 1 | 33.2 | 58.4
Ambp | 2 | 80.4 | 53.9
Ambp | 3 | 119 | 108
Smchd1 | 1 | 62.9 | 66.4
Smchd1 | 2 | 96.2 | 74.5
Smchd1 | 3 | 110 | 99.1
Prokr1 | 1 | 74 | 82
Prokr1 | 2 | 62.6 | 72.5
Prokr1 | 3 | 56.5 | 44.6
Gnai3 | 1 | 105 | 55.2
Gnai3 | 2 | 98.2 | 67.8
Gnai3 | 3 | 101 | 64.8
Slc13a1 | 1 | 64 | 99.1
Slc13a1 | 2 | 47.5 | 55.4
Slc13a1 | 3 | 75 | 65.7
Tmem131 | 1 | 69.5 | 85.3
Tmem131 | 2 | 59 | 98.6
Tmem131 | 3 | 61 | 64.6
